This passage reports binding results from article doi:10.1101/2025.08.11.669663.

By UniProt entry, the sequences of proteins in these tests, tags left out.
UniProt P00441, whole entry: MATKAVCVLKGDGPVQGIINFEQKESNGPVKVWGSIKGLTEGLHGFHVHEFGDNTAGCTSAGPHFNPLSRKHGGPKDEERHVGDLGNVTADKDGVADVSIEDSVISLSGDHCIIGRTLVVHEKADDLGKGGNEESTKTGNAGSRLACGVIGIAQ

No constants are given. Whether binding was seen depends on the method and setting. In cells and extracts the contact can be indirect. A yes stands for co-enrichment or nearness to the bait. Other partners may have been found. No binding means not detected with the bait.

The assay has as its target HA-tagged SOD1 (UniProt P00441). The experiment in a line: affinity purification with mass spectrometry.

B1: catalase (CAT) (protein, UniProt P04040 1-527)
chain: MADSRDPASDQMQHWKEQRAAQKADVLTTGAGNPVGDKLNVITVGPRGPLLVQDVVFTDEMAHFDRERIPERVVHAKGAGAFGYFEVTHDITKYSKAKVFEHIGKKTPIAVRFSTVAGESGSADTVRDPRGFAVKFYTEDGNWDLVGNNTPIFFIRDPILFPSFIHSQKRNPQTHLKDPDMVWDFWSLRPESLHQVSFLFSDRGIPDGHRHMNGYGSHTFKLVNANGEAVYCKFHYKTDQGIKNLSVEDAARLSQEDPDYGIRDLFNAIATGKYPSWTFYIQVMTFNQAETFPFNPFDLTKVWPHKDYPLIPVGKLVLNRNPVNYFAEVEQIAFDPSNMPPGIEASPDKMLQGRLFAYPDTHRHRLGPNYLHIPVNCPYRARVANYQRDGPMCMQDNQGGAPNYYPNSFGAPEQQPSALEHSIQYSGEVRRFNTANDDNVTQVRAFYVNVLNEEQRKRLCENIAGHLKDAQIFIQKKAVKNFTEVHPDYGSHIQALLDKYNAEKPKNAIHTFVQSGSHLAAREKANL
Consider B1, for which the binding entry is “binds”.

B2: TXN (protein, UniProt P10599 1-105)
chain: MVKQIESKTAFQEALDAAGDKLVVVDFSATWCGPCKMIKPFFHSLSEKYSNVIFLEVDVDDCQDVASECEVKCMPTFQFFKKGQKVGEFSGANKEKLEATINELV
Take B2: the binding entry was “binds”.

B3: GPX8 (protein, UniProt Q8TED1 1-209)
chain: MEPLAAYPLKCSGPRAKVFAVLLSIVLCTVTLFLLQLKFLKPKINSFYAFEVKDAKGRTVSLEKYKGKVSLVVNVASDCQLTDRNYLGLKELHKEFGPSHFSVLAFPCNQFGESEPRPSKEVESFARKNYGVTFPIFHKIKILGSEGEPAFRFLVDSSKKEPRWNFWKYLVNPEGQVVKFWKPEEPIEVIRPDIAALVRQVIIKKKEDL
Regarding B3, the binding entry is on record as “binds”.

B4: peroxiredoxin 2 (PRDX2) (protein, UniProt P32119 1-198)
chain: MASGNARIGKPAPDFKATAVVDGAFKEVKLSDYKGKYVVLFFYPLDFTFVCPTEIIAFSNRAEDFRKLGCEVLGVSVDSQFTHLAWINTPRKEGGLGPLNIPLLADVTRRLSEDYGVLKTDEGIAYRGLFIIDGKGVLRQITVNDLPVGRSVDEALRLVQAFQYTDEHGEVCPAGWKPGSDTIKPNVDDSKEYFSKHN
For B4, the binding result is on record as “binds”.

B5: GPX1 (protein, UniProt P07203 1-203)
chain: MCAARLAAAAAAAQSVYAFSARPLAGGEPVSLGSLRGKVLLIENVASLUGTTVRDYTQMNELQRRLGPRGLVVLGFPCNQFGHQENAKNEEILNSLKYVRPGGGFEPNFMLFEKCEVNGAGAHPLFAFLREALPAPSDDATALMTDPKLITWSPVCRNDVAWNFEKFLVGPDGVPLRRYSRRFQTIDIEPDIEALLSQGPSCA
In the case of B5, the binding result was “no binding”.

B6: PRIM2 (a DNA primase subunit) (protein, UniProt P49643 1-509)
chain: MEFSGRKWRKLRLAGDQRNASYPHCLQFYLQPPSENISLIEFENLAIDRVKLLKSVENLGVSYVKGTEQYQSKLESELRKLKFSYRENLEDEYEPRRRDHISHFILRLAYCQSEELRRWFIQQEMDLLRFRFSILPKDKIQDFLKDSQLQFEAISDEEKTLREQEIVASSPSLSGLKLGFESIYKIPFADALDLFRGRKVYLEDGFAYVPLKDIVAIILNEFRAKLSKALALTARSLPAVQSDERLQPLLNHLSHSYTGQDYSTQGNVGKISLDQIDLLSTKSFPPCMRQLHKALRENHHLRHGGRMQYGLFLKGIGLTLEQALQFWKQEFIKGKMDPDKFDKGYSYNIRHSFGKEGKRTDYTPFSCLKIILSNPPSQGDYHGCPFRHSDPELLKQKLQSYKISPGGISQILDLVKGTHYQVACQKYFEMIHNVDDCGFSLNHPNQFFCESQRILNGGKDIKKEPIQPETPQPKPSVQKTKDASSALASLNSSLEMDMEGLEDYFSEDS
For the molecule B6, the binding result is reported as “binds”.
